# Experimental data published in patent US10141017B2, “Lubricant for magnetic recording medium, and magnetic recording medium” (Dexerials Corporation, priority 2015, dated 2018).
# Assay: Friction properties of lubricant-coated hard disk (friction coefficient against number of sliding motions)
# Conditions: lubricant layer 10 Å
# [1] = sliding time 1, dip solvent Vertrel XF
# [2] = sliding time 50, dip solvent Vertrel XF
# [3] = sliding time 100, dip solvent Vertrel XF
# [4] = sliding time 1, dip solvent EtOH/Hexane
# [5] = sliding time 50, dip solvent EtOH/Hexane
# [6] = sliding time 100, dip solvent EtOH/Hexane
Compound,Friction coefficient [1],Friction coefficient [2],Friction coefficient [3],Friction coefficient [4],Friction coefficient [5],Friction coefficient [6]
"NCCOCC(F)(F)OC(F)(F)C(F)(F)OC(F)(F)C(F)(F)OC(F)(F)C(F)(F)C(F)(F)C(F)(F)F.O=S(=O)(O)CCCOCC(F)(F)OC(F)(F)C(F)(F)OC(F)(F)C(F)(F)OC(F)(F)C(F)(F)C(F)(F)C(F)(F)F [Ex. 1, PFTEG amine-PFTEG sulfonic acid salt]",0.18,0.26,0.28,,,
"octadecylamine-perfluoroheptanoic Acid Salt [compound 3, reference compound]",,,,0.55,0.53,0.33
"octylamine-PFTEG sulfonic Acid Salt [Comp. Ex. 1, reference compound]",,,,0.18,0.44,0.55
"NCCOCC(F)(F)OC(F)(F)C(F)(F)OC(F)(F)C(F)(F)OC(F)(F)C(F)(F)C(F)(F)C(F)(F)F.O=S(=O)(NS(=O)(=O)C(F)(F)C(F)(F)C(F)(F)C(F)(F)F)C(F)(F)C(F)(F)C(F)(F)C(F)(F)F [Ex. 5, PFTEG amine-bis(perfluorobutanesulfonyl)imide salt]",0.16,0.17,0.17,,,
"NCCC(F)(F)C(F)(F)C(F)(F)C(F)(F)C(F)(F)C(F)(F)C(F)(F)C(F)(F)F.O=S(=O)(O)C(F)(F)C(F)(F)C(F)(F)C(F)(F)F [compound 2, 1H,1H,2H,2H-perfluorodecylamine-perfluorobutane sulfonic acid salt, reference compound]",,,,0.25,0.31,0.40
"NCCOCC(F)(F)OC(F)(F)C(F)(F)OC(F)(F)C(F)(F)OC(F)(F)C(F)(F)C(F)(F)C(F)(F)F.O=S(=O)(O)C(F)(F)C(F)(F)C(F)(F)C(F)(F)F [Ex. 3, PFTEG amine-perfluorobutane sulfonic acid salt]",0.18,0.18,0.19,,,
"NCCC(F)(F)C(F)(F)C(F)(F)C(F)(F)C(F)(F)C(F)(F)C(F)(F)C(F)(F)F.O=C(O)C(F)(F)OC(F)(F)C(F)(F)OC(F)(F)C(F)(F)OC(F)(F)C(F)(F)C(F)(F)C(F)(F)F [Ex. 4, 1H,1H,2H,2H-perfluorodecylamine-perfluoro-3,6,9-trioxatridecanoic acid salt]",0.16,0.17,0.18,,,
